Source: the supplement of paper PMC4604168 (melanoma cell lines)
The list shows a part of the results. Single values are uncertain, as repeats are few or missing.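 Imaging used 1,536-well plates; nuclei positive for cleaved PARP by antibody were divided by total DNA-stained nuclei to yield the apoptosis fraction. Doses for screening kept most cells viable, and cell lines differ markedly in resting and induced cleaved-PARP levels.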

What was measured:
Experiment in all cases: cleaved PARP positive nuclei fraction relative to DMSO control; melanoma cells; higher = more apoptosis
Settings in all cases: library dose: low library concentration; 72 h
CBRC034 = tested on: CBRC034 (line from a melanoma biopsy)
COLO792 = tested on: COLO792
COLO800 = tested on: COLO800
COLO829 = tested on: COLO829
G361 = tested on: G361
IPC-298 = tested on: IPC-298
IST-MEL1 = tested on: IST-MEL1
LB2518-MEL = tested on: LB2518-MEL
LOXIMVI = tested on: LOXIMVI

Oc1cc(-c2nc(-c3ccccc3)[nH]c2-c2ccncc2)ccc1Cl + C/C(O)=C(\C#N)C(=O)Nc1cc(Br)ccc1Br [LFM-A13] (first compound 0.2 µM, partner dose 2 µM)
cleaved PARP positive nuclei fraction (CBRC034): 210% | cleaved PARP positive nuclei fraction (COLO792): 102% | cleaved PARP positive nuclei fraction (COLO800): 67.9% | cleaved PARP positive nuclei fraction (COLO829): 80.7% | cleaved PARP positive nuclei fraction (G361): 132% | cleaved PARP positive nuclei fraction (IPC-298): 105% | cleaved PARP positive nuclei fraction (IST-MEL1): 42.8% | cleaved PARP positive nuclei fraction (LB2518-MEL): 118% | cleaved PARP positive nuclei fraction (LOXIMVI): 45.4%

C[As](C)SC[C@H](NC(=O)CC[C@H](N)C(=O)O)C(=O)NCC(=O)O [Darinaparsin] + c1cc(-c2cnn3cc(-c4ccc(OCCN5CCCCC5)cc4)cnc23)ccn1 [Dorsomorphin] (first compound 0.4 µM, partner dose 0.4 µM)
cleaved PARP positive nuclei fraction (CBRC034): 93.2% | cleaved PARP positive nuclei fraction (COLO792): 142% | cleaved PARP positive nuclei fraction (COLO800): 61.8% | cleaved PARP positive nuclei fraction (COLO829): 114% | cleaved PARP positive nuclei fraction (G361): 179% | cleaved PARP positive nuclei fraction (IPC-298): 214% | cleaved PARP positive nuclei fraction (IST-MEL1): 88.1% | cleaved PARP positive nuclei fraction (LB2518-MEL): 85.2% | cleaved PARP positive nuclei fraction (LOXIMVI): 71.6%

N#Cc1c(O)c2c(-c3ccc(-c4ccccc4O)cc3)csc2[nH]c1=O + O=C(Oc1ccc([N+](=O)[O-])cc1)N1CCC(C(O)(c2ccc3c(c2)OCO3)c2ccc3c(c2)OCO3)CC1 [JZL184] (first compound 2 µM, partner dose 1 µM)
cleaved PARP positive nuclei fraction (CBRC034): 123% | cleaved PARP positive nuclei fraction (COLO792): 139% | cleaved PARP positive nuclei fraction (COLO800): 72.3% | cleaved PARP positive nuclei fraction (COLO829): 99.7% | cleaved PARP positive nuclei fraction (G361): 48% | cleaved PARP positive nuclei fraction (IPC-298): 82.9% | cleaved PARP positive nuclei fraction (IST-MEL1): 42.1% | cleaved PARP positive nuclei fraction (LB2518-MEL): 244% | cleaved PARP positive nuclei fraction (LOXIMVI): 41.7%

CO[C@@H]1[C@H](N(C)C(=O)c2ccccc2)C[C@H]2O[C@]1(C)n1c3ccccc3c3c4c(c5c6ccccc6n2c5c31)C(=O)NC4 [Midostaurin] + Cc1cc(SCc2sc(-c3ccc(C(F)(F)F)c(F)c3)nc2C)ccc1OCC(=O)O [GW0742] (first compound 0.08 µM, partner dose 2 µM)
cleaved PARP positive nuclei fraction (CBRC034): 176% | cleaved PARP positive nuclei fraction (COLO792): 249% | cleaved PARP positive nuclei fraction (COLO800): 188% | cleaved PARP positive nuclei fraction (COLO829): 93.6% | cleaved PARP positive nuclei fraction (G361): 152% | cleaved PARP positive nuclei fraction (IPC-298): 127% | cleaved PARP positive nuclei fraction (IST-MEL1): 170% | cleaved PARP positive nuclei fraction (LB2518-MEL): 82.5% | cleaved PARP positive nuclei fraction (LOXIMVI): 63%

NCC(=O)Nc1ccc(-n2nc(C(F)(F)F)cc2-c2ccc3c(ccc4ccccc43)c2)cc1 + O=C(Oc1ccc([N+](=O)[O-])cc1)N1CCC(C(O)(c2ccc3c(c2)OCO3)c2ccc3c(c2)OCO3)CC1 [JZL184] (first compound 1 µM, partner dose 1 µM)
cleaved PARP positive nuclei fraction (CBRC034): 80.4% | cleaved PARP positive nuclei fraction (COLO792): 121% | cleaved PARP positive nuclei fraction (COLO800): 110% | cleaved PARP positive nuclei fraction (COLO829): 187% | cleaved PARP positive nuclei fraction (G361): 59.8% | cleaved PARP positive nuclei fraction (IPC-298): 42.2% | cleaved PARP positive nuclei fraction (IST-MEL1): 106% | cleaved PARP positive nuclei fraction (LB2518-MEL): 74% | cleaved PARP positive nuclei fraction (LOXIMVI): 54.8%

Cn1nnc2c(C(N)=O)ncn2c1=O [temozolomide] + C/C(O)=C(\C#N)C(=O)Nc1cc(Br)ccc1Br [LFM-A13] (first compound 2 µM, partner dose 2 µM)
cleaved PARP positive nuclei fraction (CBRC034): 46.1% | cleaved PARP positive nuclei fraction (COLO792): 105% | cleaved PARP positive nuclei fraction (COLO800): 193% | cleaved PARP positive nuclei fraction (COLO829): 197% | cleaved PARP positive nuclei fraction (G361): 75.4% | cleaved PARP positive nuclei fraction (IPC-298): 179% | cleaved PARP positive nuclei fraction (IST-MEL1): 95.8% | cleaved PARP positive nuclei fraction (LB2518-MEL): 153% | cleaved PARP positive nuclei fraction (LOXIMVI): 41.1%

CC1(C)NC(=O)N(c2ccc([N+](=O)[O-])c(C(F)(F)F)c2)C1=O [nilutamide] + Cc1cc(SCc2sc(-c3ccc(C(F)(F)F)c(F)c3)nc2C)ccc1OCC(=O)O [GW0742] (first compound 1 µM, partner dose 2 µM)
cleaved PARP positive nuclei fraction (CBRC034): 190% | cleaved PARP positive nuclei fraction (COLO792): 168% | cleaved PARP positive nuclei fraction (COLO800): 84.7% | cleaved PARP positive nuclei fraction (COLO829): 138% | cleaved PARP positive nuclei fraction (G361): 30.9% | cleaved PARP positive nuclei fraction (IPC-298): 61.2% | cleaved PARP positive nuclei fraction (IST-MEL1): 41.9% | cleaved PARP positive nuclei fraction (LB2518-MEL): 87.9% | cleaved PARP positive nuclei fraction (LOXIMVI): 197%

COc1cc(Nc2ncc(F)c(Nc3ccc4c(n3)NC(=O)C(C)(C)O4)n2)cc(OC)c1OC [Tamatinib] + Cc1cc(SCc2sc(-c3ccc(C(F)(F)F)c(F)c3)nc2C)ccc1OCC(=O)O [GW0742] (first compound 0.4 µM, partner dose 2 µM)
cleaved PARP positive nuclei fraction (CBRC034): 39.3% | cleaved PARP positive nuclei fraction (COLO792): 185% | cleaved PARP positive nuclei fraction (COLO800): 88.7% | cleaved PARP positive nuclei fraction (COLO829): 170% | cleaved PARP positive nuclei fraction (G361): 127% | cleaved PARP positive nuclei fraction (IPC-298): 63.4% | cleaved PARP positive nuclei fraction (IST-MEL1): 54.8% | cleaved PARP positive nuclei fraction (LB2518-MEL): 113% | cleaved PARP positive nuclei fraction (LOXIMVI): 165%

C/C(O)=C(\C#N)C(=O)Nc1cc(Br)ccc1Br + COc1cc(N2CCC(N3CCN(C)CC3)CC2)ccc1Nc1ncc(Cl)c(Nc2ccccc2S(=O)(=O)C(C)C)n1 [NVP-TAE684] (first compound 2 µM, partner dose 0.08 µM)
cleaved PARP positive nuclei fraction (CBRC034): 82.7% | cleaved PARP positive nuclei fraction (COLO792): 71.2% | cleaved PARP positive nuclei fraction (COLO800): 87.8% | cleaved PARP positive nuclei fraction (COLO829): 124% | cleaved PARP positive nuclei fraction (G361): 111% | cleaved PARP positive nuclei fraction (IPC-298): 80.6% | cleaved PARP positive nuclei fraction (IST-MEL1): 89.3% | cleaved PARP positive nuclei fraction (LB2518-MEL): 95.2% | cleaved PARP positive nuclei fraction (LOXIMVI): 70.7%

O=S(=O)(c1ccccc1)N(CC(F)(F)F)c1ccc(C(O)(C(F)(F)F)C(F)(F)F)cc1 + C/C(O)=C(\C#N)C(=O)Nc1cc(Br)ccc1Br [LFM-A13] (first compound 1.4 µM, partner dose 2 µM)
cleaved PARP positive nuclei fraction (CBRC034): 87.7% | cleaved PARP positive nuclei fraction (COLO792): 95.6% | cleaved PARP positive nuclei fraction (COLO800): 153% | cleaved PARP positive nuclei fraction (COLO829): 135% | cleaved PARP positive nuclei fraction (G361): 124% | cleaved PARP positive nuclei fraction (IPC-298): 59.1% | cleaved PARP positive nuclei fraction (IST-MEL1): 128% | cleaved PARP positive nuclei fraction (LB2518-MEL): 83.5% | cleaved PARP positive nuclei fraction (LOXIMVI): 50%
